# From the supplement of paper PMC6411743
# Chains of the proteins cited; added tags and fusions are not shown. Lines headed by an entry give the natural chain unless they say otherwise; changes in a name come on top.
# UniProt Q8TBF5: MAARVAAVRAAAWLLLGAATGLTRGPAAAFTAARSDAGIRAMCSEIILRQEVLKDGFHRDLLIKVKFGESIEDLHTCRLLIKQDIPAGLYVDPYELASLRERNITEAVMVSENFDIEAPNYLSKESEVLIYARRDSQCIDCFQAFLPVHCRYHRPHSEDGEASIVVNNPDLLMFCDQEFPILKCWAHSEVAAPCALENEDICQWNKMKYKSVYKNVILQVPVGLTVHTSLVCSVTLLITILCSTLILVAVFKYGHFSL
# UniProt Q9HB19: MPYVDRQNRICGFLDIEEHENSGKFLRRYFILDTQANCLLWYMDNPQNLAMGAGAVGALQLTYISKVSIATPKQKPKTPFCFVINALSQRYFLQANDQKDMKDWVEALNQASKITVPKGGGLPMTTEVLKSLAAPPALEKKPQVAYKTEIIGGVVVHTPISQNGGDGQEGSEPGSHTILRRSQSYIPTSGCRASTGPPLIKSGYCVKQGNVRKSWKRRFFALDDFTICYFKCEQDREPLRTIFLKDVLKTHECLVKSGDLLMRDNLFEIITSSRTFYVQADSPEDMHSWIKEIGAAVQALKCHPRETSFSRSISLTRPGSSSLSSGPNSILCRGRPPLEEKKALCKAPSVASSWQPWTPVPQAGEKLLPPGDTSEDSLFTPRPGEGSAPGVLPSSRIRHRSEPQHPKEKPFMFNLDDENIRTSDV
# UniProt Q13114: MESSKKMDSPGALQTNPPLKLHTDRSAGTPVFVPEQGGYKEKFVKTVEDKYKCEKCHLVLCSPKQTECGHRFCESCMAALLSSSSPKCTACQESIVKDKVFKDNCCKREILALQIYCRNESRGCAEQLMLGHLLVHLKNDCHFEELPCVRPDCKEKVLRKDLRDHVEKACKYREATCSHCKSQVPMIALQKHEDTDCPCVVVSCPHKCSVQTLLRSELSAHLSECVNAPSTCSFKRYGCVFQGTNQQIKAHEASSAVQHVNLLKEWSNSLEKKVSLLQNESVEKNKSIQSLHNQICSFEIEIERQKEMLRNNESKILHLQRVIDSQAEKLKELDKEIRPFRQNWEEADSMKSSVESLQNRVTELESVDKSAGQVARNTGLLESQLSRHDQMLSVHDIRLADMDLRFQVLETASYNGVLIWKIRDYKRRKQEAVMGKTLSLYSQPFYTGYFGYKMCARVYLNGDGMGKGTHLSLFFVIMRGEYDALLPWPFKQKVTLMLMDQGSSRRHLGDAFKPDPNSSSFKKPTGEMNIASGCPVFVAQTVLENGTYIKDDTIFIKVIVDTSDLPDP
# UniProt Q9BUL8: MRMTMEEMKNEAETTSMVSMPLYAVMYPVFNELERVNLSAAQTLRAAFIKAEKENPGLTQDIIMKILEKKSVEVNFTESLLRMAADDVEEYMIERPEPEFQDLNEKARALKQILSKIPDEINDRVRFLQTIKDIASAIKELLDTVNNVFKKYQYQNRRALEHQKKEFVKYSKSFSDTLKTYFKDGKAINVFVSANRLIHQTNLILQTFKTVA
# UniProt Q8IYT2: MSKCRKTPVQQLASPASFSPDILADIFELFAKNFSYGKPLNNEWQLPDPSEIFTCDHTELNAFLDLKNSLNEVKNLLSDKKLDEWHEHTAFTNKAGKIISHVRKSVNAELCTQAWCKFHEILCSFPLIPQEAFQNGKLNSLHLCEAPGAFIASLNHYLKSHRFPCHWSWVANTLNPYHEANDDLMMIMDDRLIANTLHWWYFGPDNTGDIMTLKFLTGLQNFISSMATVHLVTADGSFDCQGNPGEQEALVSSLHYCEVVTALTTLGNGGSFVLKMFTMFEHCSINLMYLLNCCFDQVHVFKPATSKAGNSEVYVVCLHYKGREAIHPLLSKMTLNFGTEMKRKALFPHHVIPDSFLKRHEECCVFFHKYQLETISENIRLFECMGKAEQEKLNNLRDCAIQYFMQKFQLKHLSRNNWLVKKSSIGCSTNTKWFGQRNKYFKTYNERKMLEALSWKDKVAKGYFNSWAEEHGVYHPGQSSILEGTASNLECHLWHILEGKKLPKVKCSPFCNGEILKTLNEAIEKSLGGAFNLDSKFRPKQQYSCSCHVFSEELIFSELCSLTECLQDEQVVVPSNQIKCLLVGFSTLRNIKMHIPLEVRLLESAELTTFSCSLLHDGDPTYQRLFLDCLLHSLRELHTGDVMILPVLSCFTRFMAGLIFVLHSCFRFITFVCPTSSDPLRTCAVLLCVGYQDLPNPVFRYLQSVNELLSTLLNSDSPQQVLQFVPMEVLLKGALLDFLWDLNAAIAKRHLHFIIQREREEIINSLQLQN
# UniProt Q14728: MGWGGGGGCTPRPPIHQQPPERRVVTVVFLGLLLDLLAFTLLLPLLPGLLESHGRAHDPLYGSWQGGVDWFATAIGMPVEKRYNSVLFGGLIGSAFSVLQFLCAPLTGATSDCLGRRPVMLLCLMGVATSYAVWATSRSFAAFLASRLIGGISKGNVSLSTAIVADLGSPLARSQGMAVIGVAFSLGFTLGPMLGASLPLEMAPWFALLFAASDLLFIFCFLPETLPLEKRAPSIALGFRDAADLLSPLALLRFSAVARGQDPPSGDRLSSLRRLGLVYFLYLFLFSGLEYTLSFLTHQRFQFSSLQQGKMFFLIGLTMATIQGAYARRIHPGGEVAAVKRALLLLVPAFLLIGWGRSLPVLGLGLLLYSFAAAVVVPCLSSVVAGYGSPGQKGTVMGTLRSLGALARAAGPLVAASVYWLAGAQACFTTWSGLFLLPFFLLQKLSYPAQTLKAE
# UniProt Q9BVT8: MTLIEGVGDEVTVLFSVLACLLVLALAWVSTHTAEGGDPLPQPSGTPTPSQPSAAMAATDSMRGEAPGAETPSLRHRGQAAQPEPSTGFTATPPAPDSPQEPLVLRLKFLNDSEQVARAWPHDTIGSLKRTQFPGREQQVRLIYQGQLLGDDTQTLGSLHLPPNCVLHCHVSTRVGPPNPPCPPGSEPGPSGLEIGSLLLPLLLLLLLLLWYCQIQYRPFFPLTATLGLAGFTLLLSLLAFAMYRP
# UniProt Q16774: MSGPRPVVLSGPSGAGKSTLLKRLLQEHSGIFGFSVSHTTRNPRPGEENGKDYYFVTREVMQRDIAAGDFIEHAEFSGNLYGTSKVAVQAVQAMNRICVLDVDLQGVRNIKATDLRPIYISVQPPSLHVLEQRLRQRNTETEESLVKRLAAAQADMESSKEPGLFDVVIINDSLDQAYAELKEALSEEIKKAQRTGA
# UniProt Q9NYB9: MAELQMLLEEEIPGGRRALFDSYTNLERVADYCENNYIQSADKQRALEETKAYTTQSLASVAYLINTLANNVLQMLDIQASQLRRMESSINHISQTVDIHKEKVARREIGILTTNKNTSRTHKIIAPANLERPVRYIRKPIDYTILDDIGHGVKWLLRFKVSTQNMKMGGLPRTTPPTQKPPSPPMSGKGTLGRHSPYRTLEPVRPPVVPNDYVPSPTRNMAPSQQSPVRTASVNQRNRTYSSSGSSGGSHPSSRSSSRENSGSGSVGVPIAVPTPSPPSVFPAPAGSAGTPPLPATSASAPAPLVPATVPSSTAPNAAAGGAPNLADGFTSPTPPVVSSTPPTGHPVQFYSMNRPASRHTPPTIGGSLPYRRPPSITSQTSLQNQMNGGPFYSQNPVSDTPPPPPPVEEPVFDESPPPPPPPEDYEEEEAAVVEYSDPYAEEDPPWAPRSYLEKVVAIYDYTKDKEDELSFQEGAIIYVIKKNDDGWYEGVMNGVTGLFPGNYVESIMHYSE
# UniProt Q9Y2D4: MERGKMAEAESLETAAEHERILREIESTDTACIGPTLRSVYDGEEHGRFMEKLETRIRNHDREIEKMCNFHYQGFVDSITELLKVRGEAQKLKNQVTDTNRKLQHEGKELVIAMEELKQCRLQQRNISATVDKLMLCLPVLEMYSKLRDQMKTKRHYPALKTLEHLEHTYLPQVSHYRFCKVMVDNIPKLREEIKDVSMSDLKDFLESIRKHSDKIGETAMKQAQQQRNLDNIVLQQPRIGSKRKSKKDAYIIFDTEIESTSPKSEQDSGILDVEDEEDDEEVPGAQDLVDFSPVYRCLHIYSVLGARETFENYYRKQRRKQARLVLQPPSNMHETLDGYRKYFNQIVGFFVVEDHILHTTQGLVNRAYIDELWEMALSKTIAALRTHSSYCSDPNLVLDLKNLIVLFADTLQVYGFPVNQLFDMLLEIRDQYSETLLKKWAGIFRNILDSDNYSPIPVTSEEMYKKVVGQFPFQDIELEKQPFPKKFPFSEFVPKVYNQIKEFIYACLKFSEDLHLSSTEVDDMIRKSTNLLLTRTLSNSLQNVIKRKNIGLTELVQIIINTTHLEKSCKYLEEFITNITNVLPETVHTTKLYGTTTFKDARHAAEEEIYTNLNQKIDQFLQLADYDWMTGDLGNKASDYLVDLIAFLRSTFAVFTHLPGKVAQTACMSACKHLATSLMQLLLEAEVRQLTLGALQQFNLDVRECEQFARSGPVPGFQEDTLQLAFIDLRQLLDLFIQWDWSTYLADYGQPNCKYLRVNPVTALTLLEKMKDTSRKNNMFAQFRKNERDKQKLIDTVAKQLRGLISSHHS
# UniProt Q6P3W7: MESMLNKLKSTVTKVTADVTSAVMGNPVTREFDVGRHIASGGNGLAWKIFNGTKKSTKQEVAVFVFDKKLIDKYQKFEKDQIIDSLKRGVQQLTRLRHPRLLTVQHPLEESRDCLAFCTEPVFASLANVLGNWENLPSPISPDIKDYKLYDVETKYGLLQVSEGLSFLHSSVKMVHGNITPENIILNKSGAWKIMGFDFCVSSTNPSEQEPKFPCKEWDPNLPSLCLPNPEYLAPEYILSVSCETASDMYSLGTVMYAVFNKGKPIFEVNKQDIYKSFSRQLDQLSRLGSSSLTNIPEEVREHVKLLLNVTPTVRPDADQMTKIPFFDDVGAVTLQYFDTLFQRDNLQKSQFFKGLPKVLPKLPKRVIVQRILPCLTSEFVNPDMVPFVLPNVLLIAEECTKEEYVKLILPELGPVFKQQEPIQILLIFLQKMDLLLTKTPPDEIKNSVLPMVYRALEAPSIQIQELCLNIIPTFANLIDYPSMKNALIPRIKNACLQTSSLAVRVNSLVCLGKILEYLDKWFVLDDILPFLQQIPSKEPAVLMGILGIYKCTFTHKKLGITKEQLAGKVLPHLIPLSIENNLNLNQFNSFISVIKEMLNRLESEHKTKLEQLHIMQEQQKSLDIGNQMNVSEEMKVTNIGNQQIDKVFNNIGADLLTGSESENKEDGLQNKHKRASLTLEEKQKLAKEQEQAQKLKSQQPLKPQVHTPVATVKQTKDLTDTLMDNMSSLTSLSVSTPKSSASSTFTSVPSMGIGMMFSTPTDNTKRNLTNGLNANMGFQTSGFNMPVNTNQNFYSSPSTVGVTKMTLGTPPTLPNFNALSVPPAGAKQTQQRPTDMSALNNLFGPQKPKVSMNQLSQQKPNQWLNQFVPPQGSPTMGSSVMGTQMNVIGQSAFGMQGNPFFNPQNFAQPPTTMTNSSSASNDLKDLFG
# UniProt Q9Y672: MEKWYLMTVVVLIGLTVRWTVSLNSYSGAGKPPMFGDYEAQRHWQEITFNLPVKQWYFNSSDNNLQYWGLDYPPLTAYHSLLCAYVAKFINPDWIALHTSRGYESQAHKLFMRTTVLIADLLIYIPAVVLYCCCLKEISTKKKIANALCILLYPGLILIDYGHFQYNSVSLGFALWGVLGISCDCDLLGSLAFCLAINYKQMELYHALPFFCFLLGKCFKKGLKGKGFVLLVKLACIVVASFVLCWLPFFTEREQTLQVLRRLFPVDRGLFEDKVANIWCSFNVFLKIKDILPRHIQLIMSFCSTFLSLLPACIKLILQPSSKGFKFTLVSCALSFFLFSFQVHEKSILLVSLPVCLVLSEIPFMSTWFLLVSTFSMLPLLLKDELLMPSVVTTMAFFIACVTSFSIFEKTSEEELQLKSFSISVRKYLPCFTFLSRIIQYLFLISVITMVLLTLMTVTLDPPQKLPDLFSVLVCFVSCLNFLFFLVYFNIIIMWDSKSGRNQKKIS
# UniProt O15304: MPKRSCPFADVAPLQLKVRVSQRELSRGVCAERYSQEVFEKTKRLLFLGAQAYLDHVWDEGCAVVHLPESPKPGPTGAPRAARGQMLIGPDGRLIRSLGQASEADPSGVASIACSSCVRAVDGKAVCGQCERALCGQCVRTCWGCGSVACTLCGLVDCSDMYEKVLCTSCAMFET
# UniProt Q8WVF1: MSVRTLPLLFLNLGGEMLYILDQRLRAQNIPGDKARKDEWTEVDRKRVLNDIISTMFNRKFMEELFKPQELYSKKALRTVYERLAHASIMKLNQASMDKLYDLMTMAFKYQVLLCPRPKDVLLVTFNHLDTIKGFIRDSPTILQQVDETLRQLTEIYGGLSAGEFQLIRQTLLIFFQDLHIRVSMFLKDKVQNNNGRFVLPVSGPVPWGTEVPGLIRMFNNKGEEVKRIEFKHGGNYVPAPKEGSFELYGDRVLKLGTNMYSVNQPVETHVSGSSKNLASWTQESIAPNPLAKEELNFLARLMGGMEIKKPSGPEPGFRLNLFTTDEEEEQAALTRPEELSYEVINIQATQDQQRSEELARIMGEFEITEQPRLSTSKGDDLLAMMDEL
# ± gives the standard deviation of the averaged measurements. The entries are a selection whose mix differs from that of the whole data set.
# Compound: Nc1ncnc2c1ncn2[C@@H]1O[C@H](COP(=O)(O)OP(=O)(O)OP(=O)(O)O)[C@@H](O)[C@H]1O [adenosine triphosphate]
# Experiment: NP40-soluble protein abundance relative to vehicle (solubility fold change) (ratio); higher = more soluble protein in presence of ATP
# Summary of the method: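 Data come from three independent experiments in which Dounce-homogenised Jurkat crude lysate was treated at eight concentrations from 0.1 to 10 mM. Treatment ran 10 min at room temperature and then 3 min at 37 °C, after which 0.8% NP40 and benzonase were added for 60 min at 4 °C before ultracentrifugation. The supernatant underwent TMT labelling and LC-MS/MS, and vsn-normalised intensities were expressed as fold change against the detergent-processed vehicle in each replicate.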
Target,NP40-soluble protein abundance (concentration: 1mM),NP40-soluble protein abundance (concentration: 2mM),NP40-soluble protein abundance (concentration: 4mM),NP40-soluble protein abundance (concentration: 6mM),NP40-soluble protein abundance (concentration: 8mM),NP40-soluble protein abundance (concentration: 10mM)
C9JLT7 and related entries (UniProt Q8TBF5),1.22 ± 0.37,0.919 ± 0.011,0.95 ± 0.021,1.02 ± 0.1,0.806 ± 0.028,0.902 ± 0.0092
A8K727 and related entries (UniProt Q9HB19),1.09 ± 0.022,1.11 ± 0.013,1.11 ± 0.013,1.124 ± 0.0059,1.2 ± 0.021,1.21 ± 0.027
A6NHG8 and related entries (UniProt Q13114),1.05 ± 0.027,1.07 ± 0.097,1.08 ± 0.11,1.14 ± 0.12,1.19 ± 0.12,1.08 ± 0.1
C9J5C3 and related entries (UniProt Q9BUL8),0.967 ± 0.054,0.962 ± 0.046,0.943 ± 0.05,0.945 ± 0.082,0.981 ± 0.064,0.922 ± 0.075
C9IYN3 and related entries (UniProt Q8WVV9+D6W592+C9IYN3),1.06 ± 0.07,1.03 ± 0.067,1.03 ± 0.079,1.02 ± 0.11,1.06 ± 0.059,1.03 ± 0.058
A0A0G2JH68 (UniProt O60610),0.958 ± 0.024,0.959 ± 0.015,0.93 ± 0.022,0.977 ± 0.014,0.938 ± 0.029,0.948 ± 0.029
A0A0U1RRB3|Q8IYT2 (UniProt Q8IYT2),0.988 ± 0.087,1.02 ± 0.09,0.992 ± 0.077,0.95 ± 0.092,1.01 ± 0.081,1.02 ± 0.049
C9J2V2 and related entries (UniProt Q9Y6K9),0.982 ± 0.091,0.949 ± 0.046,0.961 ± 0.057,0.971 ± 0.058,0.956 ± 0.04,0.914 ± 0.057
D6RE79 and related entries (UniProt Q14728),0.971 ± 0.095,1 ± 0.075,0.991 ± 0.051,0.935 ± 0.11,1.05 ± 0.024,1.05 ± 0.12
C9JCW7 and related entries (UniProt Q9BVT8),1.09 ± 0.17,0.929 ± 0.019,1.07 ± 0.17,1.03 ± 0.14,1.01 ± 0.11,0.969 ± 0.018
C9JA08 and related entries (UniProt Q96D46),0.913 ± 0.022,0.916 ± 0.043,0.908 ± 0.052,0.877 ± 0.05,0.89 ± 0.075,0.88 ± 0.052
A6NCE7 and related entries (UniProt Q9GZQ8+H3BTL1+A6NCE7),0.986 ± 0.039,0.966 ± 0.0073,0.931 ± 0.024,0.968 ± 0.024,0.929 ± 0.049,0.9296 ± 0.0087
A0A0G2JIR1|A0A0G2JIS2|A0A0G2JK64|A2ABF8 and related entries (UniProt Q96KQ7),1.02 ± 0.056,1.099 ± 0.0099,1 ± 0.097,1.08 ± 0.068,0.965 ± 0.094,1.04 ± 0.066
C9J2U0 and related entries (UniProt P24864),1.03 ± 0.023,1 ± 0.025,1.03 ± 0.042,0.939 ± 0.028,1.18 ± 0.1,1.13 ± 0.089
B1ANH0 and related entries (UniProt Q16774),0.965 ± 0.034,1 ± 0.02,0.959 ± 0.018,0.974 ± 0.022,0.964 ± 0.028,0.944 ± 0.03
A0A0G2JNB1|A0A0G2JNT7|Q7Z3B3 and related entries (UniProt Q7Z3B3),1.06 ± 0.051,1.05 ± 0.048,1.08 ± 0.088,1.1 ± 0.14,1.13 ± 0.1,1.15 ± 0.11
B9A018 and related entries (UniProt Q53GS9),1.12 ± 0.12,1.16 ± 0.067,1.18 ± 0.052,1.18 ± 0.11,1.31 ± 0.029,1.31 ± 0.063
B7Z836 and related entries (UniProt Q9NYB9),0.877 ± 0.099,0.866 ± 0.055,0.861 ± 0.071,0.892 ± 0.078,0.812 ± 0.049,0.812 ± 0.072
B3KUS5 and related entries (UniProt Q70CQ3),1 ± 0.035,1.05 ± 0.12,1.05 ± 0.12,0.994 ± 0.12,1.22 ± 0.027,1.14 ± 0.1
A0A0U1RRB6|Q9Y2D4 and related entries (UniProt Q9Y2D4),0.983 ± 0.036,0.982 ± 0.034,0.985 ± 0.036,0.982 ± 0.028,0.969 ± 0.036,0.971 ± 0.06
A0A0J9YWD5|A0A0J9YYB5|B7ZM65 and related entries (UniProt Q9P1Y6),1.03 ± 0.058,1.09 ± 0.041,1.26 ± 0.046,1.37 ± 0.093,1.33 ± 0.1,1.39 ± 0.1
C9JKL2 and related entries (UniProt O95772),0.941 ± 0.024,0.945 ± 0.042,0.903 ± 0.016,0.907 ± 0.067,0.988 ± 0.086,0.876 ± 0.029
A0A0U1RQQ9|Q6P3W7 (UniProt Q6P3W7),0.9883 ± 0.0068,0.987 ± 0.05,0.971 ± 0.026,0.98 ± 0.033,0.957 ± 0.03,0.994 ± 0.057
B4DEM9 and related entries (UniProt Q9Y2S7),1.06 ± 0.14,1.04 ± 0.13,1.08 ± 0.13,1.01 ± 0.18,1.06 ± 0.13,1.06 ± 0.11
B7Z2Y2 and related entries (UniProt Q14746),1.01 ± 0.065,0.976 ± 0.072,0.982 ± 0.094,0.989 ± 0.096,0.986 ± 0.082,0.957 ± 0.041
A2A2G4 and related entries (UniProt Q9Y672),0.927 ± 0.17,0.96 ± 0.13,0.993 ± 0.15,0.939 ± 0.21,0.899 ± 0.11,0.984 ± 0.032
A0A0U1RRM4|A6NLN1 and related entries (UniProt P26599),0.882 ± 0.2,1.02 ± 0.018,0.975 ± 0.056,0.959 ± 0.12,0.949 ± 0.029,0.953 ± 0.067
A8MVZ6 and related entries (UniProt Q96G01),0.975 ± 0.033,1.07 ± 0.086,0.9752 ± 0.0059,0.997 ± 0.042,0.949 ± 0.013,0.963 ± 0.026
B4DTY2 and related entries (UniProt O15304),1.01 ± 0.069,1.05 ± 0.013,1.13 ± 0.12,1.02 ± 0.088,1.04 ± 0.14,1.11 ± 0.17
C9JF58 and related entries (UniProt Q8WVF1),0.932 ± 0.028,0.976 ± 0.041,0.977 ± 0.019,1.01 ± 0.11,0.989 ± 0.062,0.978 ± 0.04

# For convenience, some entries already given.
Target,NP40-soluble protein abundance (concentration: 1mM),NP40-soluble protein abundance (concentration: 2mM),NP40-soluble protein abundance (concentration: 4mM),NP40-soluble protein abundance (concentration: 6mM),NP40-soluble protein abundance (concentration: 8mM),NP40-soluble protein abundance (concentration: 10mM)
A0A0G2JIR1|A0A0G2JIS2|A0A0G2JK64|A2ABF8 and related entries (UniProt Q96KQ7),1.02 ± 0.056,1.099 ± 0.0099,1 ± 0.097,1.08 ± 0.068,0.965 ± 0.094,1.04 ± 0.066
C9J2U0 and related entries (UniProt P24864),1.03 ± 0.023,1 ± 0.025,1.03 ± 0.042,0.939 ± 0.028,1.18 ± 0.1,1.13 ± 0.089
